The experiment deals with T1, BRI2 (integral membrane protein 2B) (rat (endogenous in brain)) (UniProt Q5XIE8).
T1 sequence: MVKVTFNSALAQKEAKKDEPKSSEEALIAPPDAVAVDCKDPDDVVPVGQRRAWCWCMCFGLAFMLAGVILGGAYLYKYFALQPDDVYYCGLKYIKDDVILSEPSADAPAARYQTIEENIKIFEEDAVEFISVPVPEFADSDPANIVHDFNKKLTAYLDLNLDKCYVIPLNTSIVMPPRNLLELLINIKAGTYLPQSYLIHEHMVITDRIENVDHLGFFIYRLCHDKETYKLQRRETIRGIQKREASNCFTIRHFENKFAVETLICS
The experiment is described as follows: affinity purification with mass spectrometry; mouse anti-BRI2 antibody (N-terminal region) on Dynabeads Protein G; pre-cleared rat cerebral cortex, hippocampus and cerebellum lysates (50 mM Tris-HCl pH 8.0, 120 mM NaCl, 4% CHAPS), overnight at 4 °C; co-precipitated proteins identified by nano-HPLC-MS/MS; hits absent from the two mock IPs or with a PSM ratio >= 2.0.

Chains of the proteins cited; added tags and fusions are not shown.
UniProt P59215: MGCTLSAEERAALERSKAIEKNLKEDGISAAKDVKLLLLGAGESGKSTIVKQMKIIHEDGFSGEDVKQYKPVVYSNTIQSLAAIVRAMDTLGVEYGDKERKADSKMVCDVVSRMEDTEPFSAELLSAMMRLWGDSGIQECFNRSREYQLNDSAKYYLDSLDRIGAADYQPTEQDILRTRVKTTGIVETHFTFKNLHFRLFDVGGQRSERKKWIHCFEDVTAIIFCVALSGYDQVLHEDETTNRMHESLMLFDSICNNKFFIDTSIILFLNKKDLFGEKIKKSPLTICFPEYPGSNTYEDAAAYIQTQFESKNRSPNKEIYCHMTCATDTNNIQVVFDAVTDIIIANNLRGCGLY
UniProt O35179: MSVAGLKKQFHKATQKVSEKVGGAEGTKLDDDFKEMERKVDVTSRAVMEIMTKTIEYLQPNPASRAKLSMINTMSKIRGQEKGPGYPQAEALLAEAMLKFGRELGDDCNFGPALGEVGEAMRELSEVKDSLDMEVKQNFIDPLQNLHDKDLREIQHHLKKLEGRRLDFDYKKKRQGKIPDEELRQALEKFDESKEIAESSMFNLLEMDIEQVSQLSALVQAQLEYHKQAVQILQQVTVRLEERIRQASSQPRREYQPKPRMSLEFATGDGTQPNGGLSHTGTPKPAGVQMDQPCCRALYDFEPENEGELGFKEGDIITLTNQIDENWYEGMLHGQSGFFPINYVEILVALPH
UniProt P47709: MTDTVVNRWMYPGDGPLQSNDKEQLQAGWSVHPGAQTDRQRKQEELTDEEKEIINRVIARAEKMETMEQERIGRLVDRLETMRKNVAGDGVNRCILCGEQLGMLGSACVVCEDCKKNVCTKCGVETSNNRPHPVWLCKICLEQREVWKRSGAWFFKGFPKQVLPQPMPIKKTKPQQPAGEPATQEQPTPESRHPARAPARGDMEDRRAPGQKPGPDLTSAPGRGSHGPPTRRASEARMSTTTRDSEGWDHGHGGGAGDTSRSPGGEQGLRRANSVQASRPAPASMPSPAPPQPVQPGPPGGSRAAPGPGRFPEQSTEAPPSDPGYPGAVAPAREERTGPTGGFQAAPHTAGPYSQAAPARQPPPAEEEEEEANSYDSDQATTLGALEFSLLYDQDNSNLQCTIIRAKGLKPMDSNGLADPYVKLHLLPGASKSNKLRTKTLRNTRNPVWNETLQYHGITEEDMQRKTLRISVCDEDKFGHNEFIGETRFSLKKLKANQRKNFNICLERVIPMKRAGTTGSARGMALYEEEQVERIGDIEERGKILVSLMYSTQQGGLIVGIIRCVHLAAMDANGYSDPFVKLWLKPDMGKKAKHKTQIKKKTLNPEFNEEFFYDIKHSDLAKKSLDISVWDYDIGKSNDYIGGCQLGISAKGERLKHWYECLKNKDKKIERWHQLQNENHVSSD
UniProt P60881: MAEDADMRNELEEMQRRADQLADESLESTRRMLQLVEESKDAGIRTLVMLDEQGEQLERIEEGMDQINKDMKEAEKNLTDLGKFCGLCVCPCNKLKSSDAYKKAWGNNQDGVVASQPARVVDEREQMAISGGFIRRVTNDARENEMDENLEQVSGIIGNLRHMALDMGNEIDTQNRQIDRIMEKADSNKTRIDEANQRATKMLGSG
UniProt P61265: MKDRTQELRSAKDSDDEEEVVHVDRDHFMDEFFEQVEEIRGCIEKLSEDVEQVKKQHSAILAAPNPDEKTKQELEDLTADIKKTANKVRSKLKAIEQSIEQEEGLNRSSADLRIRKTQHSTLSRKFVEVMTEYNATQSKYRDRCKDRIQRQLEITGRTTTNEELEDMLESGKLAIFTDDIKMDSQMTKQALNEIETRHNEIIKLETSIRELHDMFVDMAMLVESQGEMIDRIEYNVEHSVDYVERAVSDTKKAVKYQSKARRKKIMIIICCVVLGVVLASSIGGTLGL
UniProt P85108: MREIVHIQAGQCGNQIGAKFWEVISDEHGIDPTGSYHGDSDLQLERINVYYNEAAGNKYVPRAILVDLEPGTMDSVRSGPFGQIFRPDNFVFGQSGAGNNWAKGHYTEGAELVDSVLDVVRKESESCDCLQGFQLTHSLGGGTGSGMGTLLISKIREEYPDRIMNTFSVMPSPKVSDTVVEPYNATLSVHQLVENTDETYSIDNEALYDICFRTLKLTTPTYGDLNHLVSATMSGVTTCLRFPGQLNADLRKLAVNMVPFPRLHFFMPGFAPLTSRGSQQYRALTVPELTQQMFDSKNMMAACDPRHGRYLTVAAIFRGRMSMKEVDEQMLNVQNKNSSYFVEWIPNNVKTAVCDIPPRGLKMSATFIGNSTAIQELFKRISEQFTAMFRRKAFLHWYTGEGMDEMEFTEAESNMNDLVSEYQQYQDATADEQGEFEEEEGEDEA
UniProt P10499: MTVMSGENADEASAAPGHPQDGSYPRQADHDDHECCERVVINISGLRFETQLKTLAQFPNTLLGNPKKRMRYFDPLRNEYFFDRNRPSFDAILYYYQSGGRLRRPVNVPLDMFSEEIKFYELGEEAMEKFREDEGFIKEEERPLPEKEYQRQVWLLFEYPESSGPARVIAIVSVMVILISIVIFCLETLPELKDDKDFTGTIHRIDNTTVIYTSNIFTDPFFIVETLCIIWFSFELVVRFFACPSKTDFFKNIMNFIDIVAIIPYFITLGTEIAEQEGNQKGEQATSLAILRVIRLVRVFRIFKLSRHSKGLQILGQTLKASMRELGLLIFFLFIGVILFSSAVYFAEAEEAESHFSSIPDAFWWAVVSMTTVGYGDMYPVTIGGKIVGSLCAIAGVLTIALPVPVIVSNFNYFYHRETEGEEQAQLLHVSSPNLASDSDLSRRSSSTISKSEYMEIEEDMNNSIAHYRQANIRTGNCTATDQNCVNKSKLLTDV
UniProt Q62747: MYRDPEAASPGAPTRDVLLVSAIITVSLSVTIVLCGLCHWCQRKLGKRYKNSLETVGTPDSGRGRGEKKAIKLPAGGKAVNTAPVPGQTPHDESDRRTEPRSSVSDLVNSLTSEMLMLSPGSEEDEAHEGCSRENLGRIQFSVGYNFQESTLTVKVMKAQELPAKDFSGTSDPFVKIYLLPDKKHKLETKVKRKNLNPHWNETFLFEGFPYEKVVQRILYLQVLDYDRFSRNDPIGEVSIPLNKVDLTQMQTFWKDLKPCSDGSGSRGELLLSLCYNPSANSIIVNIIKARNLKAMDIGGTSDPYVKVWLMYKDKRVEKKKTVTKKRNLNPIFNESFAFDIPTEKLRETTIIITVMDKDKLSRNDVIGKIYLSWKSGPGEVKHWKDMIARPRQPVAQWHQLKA
UniProt P61765: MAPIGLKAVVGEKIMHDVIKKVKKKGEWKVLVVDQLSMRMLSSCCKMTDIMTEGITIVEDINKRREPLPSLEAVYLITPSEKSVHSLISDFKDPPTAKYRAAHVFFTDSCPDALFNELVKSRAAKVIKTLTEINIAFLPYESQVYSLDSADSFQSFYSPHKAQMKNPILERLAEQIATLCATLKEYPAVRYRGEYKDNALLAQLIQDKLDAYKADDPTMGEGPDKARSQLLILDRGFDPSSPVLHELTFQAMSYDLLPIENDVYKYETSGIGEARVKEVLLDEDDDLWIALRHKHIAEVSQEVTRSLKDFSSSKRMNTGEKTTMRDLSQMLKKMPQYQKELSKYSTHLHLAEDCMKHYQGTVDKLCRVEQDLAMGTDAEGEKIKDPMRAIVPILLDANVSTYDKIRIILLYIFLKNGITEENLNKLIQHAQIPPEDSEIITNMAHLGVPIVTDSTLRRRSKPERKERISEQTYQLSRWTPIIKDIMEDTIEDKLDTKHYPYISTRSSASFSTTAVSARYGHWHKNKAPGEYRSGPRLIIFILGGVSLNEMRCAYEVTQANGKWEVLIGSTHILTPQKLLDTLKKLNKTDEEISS
UniProt Q63537: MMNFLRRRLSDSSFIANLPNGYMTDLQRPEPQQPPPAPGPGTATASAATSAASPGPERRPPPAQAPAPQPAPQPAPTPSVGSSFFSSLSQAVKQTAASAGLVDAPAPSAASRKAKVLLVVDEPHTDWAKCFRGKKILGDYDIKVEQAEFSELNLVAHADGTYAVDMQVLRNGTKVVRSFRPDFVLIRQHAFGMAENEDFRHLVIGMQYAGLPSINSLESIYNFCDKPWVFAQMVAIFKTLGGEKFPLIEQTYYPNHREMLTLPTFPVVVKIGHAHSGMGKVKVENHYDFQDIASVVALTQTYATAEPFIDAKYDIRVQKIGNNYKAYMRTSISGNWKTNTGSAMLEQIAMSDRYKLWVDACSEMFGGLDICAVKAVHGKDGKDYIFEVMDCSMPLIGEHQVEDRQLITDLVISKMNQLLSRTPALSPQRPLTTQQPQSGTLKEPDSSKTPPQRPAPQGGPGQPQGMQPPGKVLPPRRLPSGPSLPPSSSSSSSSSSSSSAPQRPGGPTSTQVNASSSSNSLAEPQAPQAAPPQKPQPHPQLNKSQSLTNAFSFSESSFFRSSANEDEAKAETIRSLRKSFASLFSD
UniProt P11506: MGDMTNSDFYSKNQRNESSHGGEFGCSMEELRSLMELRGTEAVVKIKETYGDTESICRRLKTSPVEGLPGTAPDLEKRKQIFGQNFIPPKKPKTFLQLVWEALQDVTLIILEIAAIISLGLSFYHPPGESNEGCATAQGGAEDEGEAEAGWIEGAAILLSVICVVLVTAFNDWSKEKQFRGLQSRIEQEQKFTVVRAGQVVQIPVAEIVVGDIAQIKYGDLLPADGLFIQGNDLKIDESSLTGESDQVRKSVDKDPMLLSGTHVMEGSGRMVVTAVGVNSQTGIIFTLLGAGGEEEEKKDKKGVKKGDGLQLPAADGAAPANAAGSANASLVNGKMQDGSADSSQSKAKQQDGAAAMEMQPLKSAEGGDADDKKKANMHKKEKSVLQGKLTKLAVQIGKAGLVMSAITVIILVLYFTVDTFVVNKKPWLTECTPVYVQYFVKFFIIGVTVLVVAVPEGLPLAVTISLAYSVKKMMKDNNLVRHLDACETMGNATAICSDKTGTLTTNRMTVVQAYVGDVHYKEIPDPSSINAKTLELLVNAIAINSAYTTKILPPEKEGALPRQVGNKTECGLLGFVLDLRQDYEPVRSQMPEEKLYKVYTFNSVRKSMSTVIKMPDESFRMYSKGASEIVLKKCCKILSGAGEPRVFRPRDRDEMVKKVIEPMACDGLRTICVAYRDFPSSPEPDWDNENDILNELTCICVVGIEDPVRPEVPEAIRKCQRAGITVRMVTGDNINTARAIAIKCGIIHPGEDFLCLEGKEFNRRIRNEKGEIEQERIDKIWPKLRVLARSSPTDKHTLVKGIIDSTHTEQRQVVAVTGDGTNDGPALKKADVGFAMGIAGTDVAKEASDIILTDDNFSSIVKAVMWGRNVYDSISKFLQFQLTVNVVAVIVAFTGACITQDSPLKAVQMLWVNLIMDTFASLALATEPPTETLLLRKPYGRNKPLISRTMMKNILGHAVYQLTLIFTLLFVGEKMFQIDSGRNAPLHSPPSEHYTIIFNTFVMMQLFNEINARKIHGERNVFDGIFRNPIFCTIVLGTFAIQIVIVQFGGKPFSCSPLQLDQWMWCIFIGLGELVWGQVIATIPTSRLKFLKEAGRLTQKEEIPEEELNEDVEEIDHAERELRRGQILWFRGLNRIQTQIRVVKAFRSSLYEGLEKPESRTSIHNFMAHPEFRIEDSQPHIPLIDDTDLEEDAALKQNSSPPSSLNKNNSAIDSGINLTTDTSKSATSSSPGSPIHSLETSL
UniProt Q9WU34: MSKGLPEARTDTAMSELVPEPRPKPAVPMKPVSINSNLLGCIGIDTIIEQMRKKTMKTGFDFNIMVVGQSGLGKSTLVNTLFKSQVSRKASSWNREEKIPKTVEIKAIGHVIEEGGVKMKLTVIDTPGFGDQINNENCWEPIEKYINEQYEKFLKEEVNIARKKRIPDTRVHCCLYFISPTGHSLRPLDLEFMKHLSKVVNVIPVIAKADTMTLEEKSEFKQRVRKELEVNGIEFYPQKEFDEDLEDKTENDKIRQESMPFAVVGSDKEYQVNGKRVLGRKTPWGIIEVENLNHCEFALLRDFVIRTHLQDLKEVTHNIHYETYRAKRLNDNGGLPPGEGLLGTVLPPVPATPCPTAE
UniProt P11275: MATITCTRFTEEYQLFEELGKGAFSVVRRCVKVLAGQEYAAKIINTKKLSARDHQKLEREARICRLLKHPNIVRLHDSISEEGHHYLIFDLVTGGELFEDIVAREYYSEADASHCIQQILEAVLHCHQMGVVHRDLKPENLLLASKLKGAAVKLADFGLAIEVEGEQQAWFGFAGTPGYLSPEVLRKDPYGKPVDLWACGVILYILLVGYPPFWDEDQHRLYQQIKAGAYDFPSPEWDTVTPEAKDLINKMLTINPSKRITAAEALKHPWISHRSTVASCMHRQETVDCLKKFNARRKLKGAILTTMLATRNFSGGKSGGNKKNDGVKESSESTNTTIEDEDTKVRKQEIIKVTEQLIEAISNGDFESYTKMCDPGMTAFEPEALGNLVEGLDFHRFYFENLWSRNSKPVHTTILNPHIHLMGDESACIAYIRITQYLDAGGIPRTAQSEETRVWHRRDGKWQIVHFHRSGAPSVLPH

No constants are given. Whether binding was seen depends on the method and setting. Binding seen in cells or lysates may run through a third protein. These calls come from enrichment with a bait or labelling near it, and not all partners need be listed.

Regarding “Regulating synaptic membrane exocytosis protein 1 (from UniProt Q9JIR4 1-1615)”, the binding result is “binds”. As for “Protein kinase C gamma type (from UniProt P63319 1-697)”, the entry is “binds”; as for “Guanine nucleotide-binding protein G (from UniProt P59215 1-354)”, “binds”; as for “Kinesin light chain 1 (from UniProt P37285 1-560)”, “binds”. As for “dihydropyridine-sensitive L-type, calcium channel alpha-2/delta subunit (from UniProt P54290 25-1091)”, the entry is “binds”. As for “Neurocan core protein (from UniProt P55067 23-1257)”, the entry is “binds”; as for “Endophilin-A1 (from UniProt O35179 1-352)”, “binds”. For the substance “Glutamate receptor ionotropic, NMDA 1 (from UniProt P35439 19-938)”, the binding entry is on record as “binds”. As for “Dihydropyrimidinase-related protein 1 (from UniProt Q62950 1-572)”, the entry is “binds”; as for “Glutamate receptor 2 (from UniProt P19491 22-883)”, “binds”; as for “Synaptic vesicle glycoprotein 2 A (from UniProt Q02563 1-742)”, “binds”. As for “Myelin basic protein (from UniProt P02688 1-195)”, the entry is “binds”; as for “Disks large-associated protein 1 (from UniProt P97836 1-992)”, “binds”.

As to “Microtubule-associated protein 1B (from UniProt P15205 1-2461)”, the binding entry was “binds”. Next, “Connector enhancer of kinase suppressor of ras 2 (from UniProt Q9Z1T4 1-1032)”: “binds”; “ELAV-like protein 2 (from UniProt Q8CH84 1-359)”: “binds”; “Plasma membrane calcium-transporting ATPase 3 (from UniProt Q64568 1-1258)”: “binds”. As to “Homer protein homolog 1 (from UniProt Q9Z214 1-366)”, the binding result is “binds”.

As for “Protein bassoon (from UniProt O88778 1-3938)”, the binding result was “binds”. As for “Arf-GAP with GTPase, ANK repeat and PH domain-containing protein 2 (from UniProt Q8CGU4 1-1186)”, the binding entry is on record as “binds”. Next, “Voltage-dependent calcium channel gamma-2 subunit (from UniProt Q71RJ2 1-323)”: “binds”; “Glutamate receptor ionotropic, NMDA 2B (from UniProt Q00960 27-1482)”: “binds”; “serine/threonine-protein phosphatase PP1-alpha catalytic subunit (from UniProt P62138 1-330)”: “binds”.

For “Vesicle-fusing ATPase (from UniProt Q9QUL6 1-744)”, the binding entry is recorded as “binds”.

Regarding “Synaptophysin (from UniProt P07825 1-307)”, the binding entry is on record as “binds”. Next, “Synaptotagmin-2 (from UniProt P29101 1-422)”: “binds”; “Sodium/potassium-transporting ATPase subunit alpha-2 (from UniProt P06686 1-1020)”: “binds”; “Visinin-like protein 1 (from UniProt P62762 1-191)”: “binds”. As for “Rabphilin-3A (from UniProt P47709 1-684)”, the entry is “binds”. As for “Synaptosomal-associated protein 25 (from UniProt P60881 1-206)”, the entry is “binds”; as for “Dihydropyrimidinase-related protein 4 (from UniProt Q62951 1-564)”, “binds”; as for Syntaxin-1B (from UniProt P61265 1-288), “binds”. “Brevican core protein (from UniProt P55068 23-883)”: the binding result is “binds”. As for “Neural cell adhesion molecule 1 (from UniProt P13596 20-858)”, the entry is “binds”; as for “Glutamate receptor 1 (from UniProt P19490 19-907)”, “binds”. Take “Synaptotagmin-1 (from UniProt P21707 1-421)”: the binding entry is recorded as “binds”. As to “Synaptic vesicle glycoprotein 2B (from UniProt Q63564 1-683)”, the binding result is reported as “binds”. As for “Tubulin beta-2A chain (from UniProt P85108 1-445)”, the entry is “binds”; as for “Kinesin heavy chain isoform 5 A (from UniProt Q6QLM7 1-1027)”, “binds”.

For the substance “Guanine nucleotide-binding protein G (from UniProt P19627 1-355)”, the binding result is “binds”.

On to “Glial fibrillary acidic protein (from UniProt P47819 1-430)”, for which the binding entry is “binds”. As for “Sodium/calcium exchanger 2 (from UniProt P48768 21-921)”, the entry is “binds”; as for “Potassium voltage-gated channel subfamily A member 1 (from UniProt P10499 1-495)”, “binds”; as for “Sodium/potassium-transporting ATPase subunit alpha-3 (from UniProt P06687 1-1013)”, “binds”.

Turning to “Synaptotagmin-7 (from UniProt Q62747 1-403)”, the binding entry is “binds”. As for “Syntaxin-binding protein 1 (from UniProt P61765 1-594)”, the entry is “binds”. As for “Microtubule-associated protein 1 A (from UniProt P34926 1-2774)”, the entry is “binds”; as for “Tubulin beta-2B chain (from UniProt Q3KRE8 1-445)”, “binds”. Next, “Calcium-dependent secretion activator 1 (from UniProt Q62717 1-1289)”: “binds”; Synapsin-2 (from UniProt Q63537 1-586): “binds”.

Consider “Plasma membrane calcium-transporting ATPase 2 (from UniProt P11506 1-1243)”, for which the binding result is reported as “binds”. As to “Neuronal-specific septin-3 (from UniProt Q9WU34 1-358)”, the binding result is recorded as “binds”. Regarding Synapsin-1 (from UniProt P09951 1-704), the binding entry is on record as “binds”. As for “Protein piccolo (from UniProt Q9JKS6 1-5085)”, the entry is “binds”.

Consider “Calcium/calmodulin-dependent protein kinase type II subunit beta (from UniProt P08413 1-542)”, for which the binding result is reported as “binds”.

“Calcium/calmodulin-dependent protein kinase type II subunit alpha (from UniProt P11275 1-478)”: the binding entry is “binds”. Next, “Sodium/potassium-transporting ATPase subunit beta-2 (from UniProt P13638 1-290)”: “binds”. Next, “Tubulin beta-3 chain (from UniProt Q4QRB4 1-450)”: “binds”; Complexin-1 (from UniProt P63041 1-134): “binds”; “Proline-rich transmembrane protein 1 (from UniProt Q6MG82 1-306)”: “binds”. As for “Kinesin heavy chain isoform 5 C (from UniProt P56536 1-955)”, the entry is “binds”.

(Values after publication PMC5824958.)
